Reference: patent US20240376149A1, “Novel Modulators of GABABR1a” (VIB VZW, priority 2021, published 2024)
No constants are given. Whether binding was seen depends on the method and setting. Some results given as binding are weak or reduced against the parent protein; the word gives no strength. Values belong to the binder of their own block, whether it stands above or below them.

Amino acid sequences for entries named in this document (tags omitted). Residues count along the entry.
UniProt Q9UBS5, residues 20-591: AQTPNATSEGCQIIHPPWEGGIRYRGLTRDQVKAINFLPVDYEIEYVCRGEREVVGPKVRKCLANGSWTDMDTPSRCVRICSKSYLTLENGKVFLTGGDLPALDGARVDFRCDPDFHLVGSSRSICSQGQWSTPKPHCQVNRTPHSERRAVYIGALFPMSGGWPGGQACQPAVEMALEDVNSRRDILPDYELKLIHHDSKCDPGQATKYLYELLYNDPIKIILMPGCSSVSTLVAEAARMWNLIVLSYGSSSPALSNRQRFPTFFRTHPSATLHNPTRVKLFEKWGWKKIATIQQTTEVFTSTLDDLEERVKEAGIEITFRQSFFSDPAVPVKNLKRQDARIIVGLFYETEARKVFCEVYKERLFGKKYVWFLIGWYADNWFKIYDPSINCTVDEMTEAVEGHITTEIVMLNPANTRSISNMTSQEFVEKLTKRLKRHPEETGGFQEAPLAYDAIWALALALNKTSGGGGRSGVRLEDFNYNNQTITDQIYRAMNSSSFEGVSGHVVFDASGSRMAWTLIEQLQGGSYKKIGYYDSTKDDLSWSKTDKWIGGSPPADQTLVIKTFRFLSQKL

Target: Ectodomain of GABABR1a comprising SD1, expressed on HEK293 cells with N-terminal His-tag (human) (UniProt Q9UBS5)
Experiment: flow cytometry on HEK293 cells expressing the GABABR1a ectodomain, competition against biotinylated 9-mer

binding: binds
B1: VIB_P33 (peptide)
peptide: DVWWG
notes: also called DVWWG 5-mer; wild-type 5-mer

binding: binds
B2: VIB_P34 (peptide)
peptide: DIWWS
notes: also called VIB_34; DIWWS
